According to patent US20240016931A1:
Where a chain is given by its changes, count along the chain named. These are yes or no findings as the source states them, for the method shown. Some results given as binding are weak or reduced against the parent protein; the word gives no strength.

B1: hu119-23 (antibody, human IgG1, kappa, V domains shown)
VH: EVQLVQSGAEVKKPGSSVKVSCKASGFTFSTYNMHWVKHAPGQGLEWIGAIYPGNGETSYNQKFKDRATLTVDKSTSTAYMELSSLRSEDTAVYYCAREDDYGEGYFDVWGQGTTVTVSS
VL: DIVLTQSPATLSLSPGERATLSCRASESVDNSGLSFMHWYQQKPGQPPRLLLYRASNLGSGIPARFSGSGSGTDFTLTISSLEPEDFAVYYCQQINTDPLTFGQGTKLEIKR
B2: hu119-28 (antibody, human IgG1, kappa, V domains shown)
VH: B1 VH
VL: DIVLTQSPDSLAVSLGERATINCRASESVDSSGLSFMHWYQQKPGQPPKLLIYRASNLGSGVPDRFSGSGSGTDFTLTISSLQAEDVAVYYCQQINTDPLTFGQGTKLEIKR
B3: hu119-29 (antibody, human IgG1, kappa, V domains shown)
VH: B1 VH
VL: B2 VL with S31Q

molecular target: His-tagged human TSLP antigen (huTSLP-his) (human); assay: ELISA on human TSLP

binding, binds:
B1
B2
B3

molecular target: His-tagged human TSLP antigen (huTSLP-his) (human); assay: ELISA, coated huTSLP-his

binding, binds:
B1
B2
B3
